Results from US5374733A, “Sweetening agent derived from L-aspartic or L-glutamic acid” (priority 1989, dated 1994).
For at least one compound, name, drawing or mass did not settle the structure.

Assay: Sweetening potency: taste comparison by a team of eight experienced people with a sucrose reference solution
Details: for SP (relative sweetening potency): Table 3, compared with a 2% aqueous solution of sucrose; for SP (relative sweetening potency) / sweetening potency: weight basis
Method: The sweetening potency of the compounds described in the Examples was evaluated by a team of eight experienced people. This is done by comparing the taste of the compounds, in aqueous solution at variable concentrations, with a 2%, 5 % or 10 % reference solution of sucrose. The sweetening potency of the test compound compared with sucrose then corresponds to the weight ratio between the compound and sucrose for equal sweetening intensity, i.e. when the sweet tastes of the solution of the test compound and the reference solution of sucrose are considered, by a majority of people, to have the same sweetening intensity.
Summary Table 3 below gives, by way of examples, a list of a few compounds obtained by experimental protocols similar to those described above, which those skilled in the art will easily find, together with their relative sweetening potency (SP), evaluated on a weight basis, compared with a 2% aqueous solution of sucrose. When the groups R1, R2 and R3 are different, the configuration of the asymmetric carbon to which they are bonded (carbon marked with an asterisk) is designated according to the conventional rules of stereochemistry using the R/S system: R, S or, when both configurations coexist in the same compound, RS.

[1] = by comparison with a 2% solution of sucrose
[2] = by comparison with a 5% solution of sucrose
[3] = by comparison with a 10% solution of sucrose

| SMILES | SP (relative sweetening potency) | sweetening potency [1] | sweetening potency [2] | sweetening potency [3] | sucrose solution of equivalent sweet taste (aqueous solution of 10 mg/l of the compound) [%] |
| --- | --- | --- | --- | --- | --- |
| CCCCC(C)(C)C(=O)N[C@@H](CCC(=O)O)C(=O)Nc1ccc(C#N)nc1 [Example 2, N-(2,2-dimethylhexanoyl)-alpha-L-glutamyl-5-aminopyridine-2-carbonitrile] | 22000 | ~22,000 times that of sucrose | ~15,000 times that of sucrose | ~14,000 times that of sucrose | – |
| C[C@@H](Oc1ccccc1)C(=O)N[C@@H](CCC(=O)O)C(=O)Nc1ccc(C#N)nc1 [Example 3, N-[(R)-2-phenoxypropanoyl]-alpha-L-glutamyl-5-aminopyridine-2-carbonitrile] | 25000 | ~25,000 times that of sucrose | – | – | – |
| CCCC[C@H](C)C(=O)N[C@@H](CCC(=O)O)C(=O)Nc1ccc(C#N)nc1 [Example 1, N-[(S)-2-methylhexanoyl]-alpha-L-glutamyl-5-aminopyridine-2-carbonitrile] | 20000 | ~20,000 times that of sucrose | ~15,000 times that of sucrose | ~10,000 times that of sucrose | 10 |
